Common to all, as to assay: co-IP; endogenous proteins from A-431 cells; RIPA lysate, beads coupled to USP25, USP28 or ∆Np63 antibodies, non-specific rabbit IgG as control; immunoblot
In general terms: In western blotting, separated proteins are transferred to a membrane and probed.

Amino acid sequences for entries named in this document (tags omitted).
UniProt Q9UHP3: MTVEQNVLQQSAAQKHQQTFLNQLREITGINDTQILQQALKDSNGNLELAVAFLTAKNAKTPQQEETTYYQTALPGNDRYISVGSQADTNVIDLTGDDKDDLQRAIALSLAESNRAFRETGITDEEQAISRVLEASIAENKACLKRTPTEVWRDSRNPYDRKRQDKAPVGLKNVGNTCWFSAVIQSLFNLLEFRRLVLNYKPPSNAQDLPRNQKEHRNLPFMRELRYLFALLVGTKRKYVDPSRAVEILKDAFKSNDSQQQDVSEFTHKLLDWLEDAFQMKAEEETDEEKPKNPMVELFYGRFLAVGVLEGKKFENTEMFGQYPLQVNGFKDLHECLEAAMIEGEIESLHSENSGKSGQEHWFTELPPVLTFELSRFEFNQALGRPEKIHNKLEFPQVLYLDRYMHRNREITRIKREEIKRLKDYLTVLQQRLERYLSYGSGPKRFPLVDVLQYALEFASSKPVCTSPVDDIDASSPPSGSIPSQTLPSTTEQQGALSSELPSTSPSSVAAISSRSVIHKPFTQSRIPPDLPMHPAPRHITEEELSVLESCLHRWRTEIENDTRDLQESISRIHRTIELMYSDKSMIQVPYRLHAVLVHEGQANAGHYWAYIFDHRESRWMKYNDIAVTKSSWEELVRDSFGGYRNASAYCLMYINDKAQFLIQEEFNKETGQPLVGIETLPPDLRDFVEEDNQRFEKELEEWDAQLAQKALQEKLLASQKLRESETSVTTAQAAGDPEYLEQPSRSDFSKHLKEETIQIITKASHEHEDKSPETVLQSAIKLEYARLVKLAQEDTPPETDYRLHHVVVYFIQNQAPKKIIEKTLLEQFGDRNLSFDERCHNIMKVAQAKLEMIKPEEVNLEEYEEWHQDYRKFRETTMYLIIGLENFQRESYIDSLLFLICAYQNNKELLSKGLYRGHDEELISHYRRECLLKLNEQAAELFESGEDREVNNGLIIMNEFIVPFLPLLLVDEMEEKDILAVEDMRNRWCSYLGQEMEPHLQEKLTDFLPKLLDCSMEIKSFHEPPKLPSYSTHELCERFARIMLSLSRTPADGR
UniProt Q96RU2: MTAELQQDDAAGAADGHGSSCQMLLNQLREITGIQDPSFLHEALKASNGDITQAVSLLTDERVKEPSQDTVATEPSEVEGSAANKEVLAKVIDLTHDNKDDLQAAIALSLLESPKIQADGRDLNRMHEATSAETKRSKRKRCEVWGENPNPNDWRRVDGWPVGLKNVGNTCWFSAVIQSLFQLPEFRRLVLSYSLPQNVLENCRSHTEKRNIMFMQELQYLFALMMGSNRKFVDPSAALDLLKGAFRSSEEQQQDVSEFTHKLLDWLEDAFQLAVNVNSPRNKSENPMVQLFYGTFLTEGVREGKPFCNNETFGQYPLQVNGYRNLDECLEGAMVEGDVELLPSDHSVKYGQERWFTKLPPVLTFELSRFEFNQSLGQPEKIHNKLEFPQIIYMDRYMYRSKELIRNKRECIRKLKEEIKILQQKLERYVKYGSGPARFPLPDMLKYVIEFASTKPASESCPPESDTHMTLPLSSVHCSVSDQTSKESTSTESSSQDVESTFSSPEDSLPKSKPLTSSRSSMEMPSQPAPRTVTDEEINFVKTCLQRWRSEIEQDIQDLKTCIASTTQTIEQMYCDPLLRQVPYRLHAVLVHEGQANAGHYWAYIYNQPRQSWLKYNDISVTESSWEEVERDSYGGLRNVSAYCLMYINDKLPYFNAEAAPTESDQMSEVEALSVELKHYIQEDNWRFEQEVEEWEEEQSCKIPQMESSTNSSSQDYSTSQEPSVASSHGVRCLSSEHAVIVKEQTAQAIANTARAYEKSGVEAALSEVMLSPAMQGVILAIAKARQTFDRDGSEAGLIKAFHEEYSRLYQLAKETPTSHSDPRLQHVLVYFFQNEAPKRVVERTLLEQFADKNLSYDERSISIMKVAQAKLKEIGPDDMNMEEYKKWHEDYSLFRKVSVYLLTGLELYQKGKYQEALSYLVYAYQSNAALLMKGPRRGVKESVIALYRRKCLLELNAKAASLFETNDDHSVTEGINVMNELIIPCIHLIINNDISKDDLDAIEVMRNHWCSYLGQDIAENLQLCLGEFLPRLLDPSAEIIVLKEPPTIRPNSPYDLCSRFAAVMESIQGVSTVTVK

Assay [1] concerns the target T1, endogenous ∆Np63 (human (endogenous in A-431)) (UniProt Q9H3D4).
T1 sequence: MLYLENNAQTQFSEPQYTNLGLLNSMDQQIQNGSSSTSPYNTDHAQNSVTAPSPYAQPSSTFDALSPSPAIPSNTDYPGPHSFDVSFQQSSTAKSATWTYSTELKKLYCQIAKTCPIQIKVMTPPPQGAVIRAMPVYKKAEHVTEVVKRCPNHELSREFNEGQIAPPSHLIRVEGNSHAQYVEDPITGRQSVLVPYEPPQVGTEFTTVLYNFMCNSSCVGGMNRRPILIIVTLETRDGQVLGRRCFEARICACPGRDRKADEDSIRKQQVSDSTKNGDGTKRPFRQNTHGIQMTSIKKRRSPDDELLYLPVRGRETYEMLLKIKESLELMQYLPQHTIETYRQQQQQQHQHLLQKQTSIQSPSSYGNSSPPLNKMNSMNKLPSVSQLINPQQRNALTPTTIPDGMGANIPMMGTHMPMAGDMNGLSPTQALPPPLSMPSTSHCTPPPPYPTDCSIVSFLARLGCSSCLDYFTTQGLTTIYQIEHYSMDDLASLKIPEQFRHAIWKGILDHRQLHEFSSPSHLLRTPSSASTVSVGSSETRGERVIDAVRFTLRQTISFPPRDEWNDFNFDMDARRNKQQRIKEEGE

The target in assay [2] is endogenous USP25 (human (endogenous in A-431)) (UniProt Q9UHP3).
Assay [3] concerns the target endogenous USP28 (human (endogenous in A-431)) (UniProt Q96RU2).

No constants are given. Whether binding was seen depends on the method and setting. Binding seen in cells or lysates may run through a third protein. Some results given as binding are weak or reduced against the parent protein; the word gives no strength.

Consider “endogenous USP25 (from UniProt Q9UHP3 1-1055) (enzyme)”, for which the binding entry in assay [1] is “no binding”.

B1: endogenous ∆Np63 (protein, UniProt Q9H3D4-2 1-586)
chain: MLYLENNAQTQFSEPQYTNLGLLNSMDQQIQNGSSSTSPYNTDHAQNSVTAPSPYAQPSSTFDALSPSPAIPSNTDYPGPHSFDVSFQQSSTAKSATWTYSTELKKLYCQIAKTCPIQIKVMTPPPQGAVIRAMPVYKKAEHVTEVVKRCPNHELSREFNEGQIAPPSHLIRVEGNSHAQYVEDPITGRQSVLVPYEPPQVGTEFTTVLYNFMCNSSCVGGMNRRPILIIVTLETRDGQVLGRRCFEARICACPGRDRKADEDSIRKQQVSDSTKNGDGTKRPFRQNTHGIQMTSIKKRRSPDDELLYLPVRGRETYEMLLKIKESLELMQYLPQHTIETYRQQQQQQHQHLLQKQTSIQSPSSYGNSSPPLNKMNSMNKLPSVSQLINPQQRNALTPTTIPDGMGANIPMMGTHMPMAGDMNGLSPTQALPPPLSMPSTSHCTPPPPYPTDCSIVSFLARLGCSSCLDYFTTQGLTTIYQIEHYSMDDLASLKIPEQFRHAIWKGILDHRQLHEFSSPSHLLRTPSSASTVSVGSSETRGERVIDAVRFTLRQTISFPPRDEWNDFNFDMDARRNKQQRIKEEGE
For the molecule B1, the binding result in assay [2] was “no binding”; in assay [3], “binds”.

The values are drawn from paper PMC7136964.
